According to PubChem BioAssay AID240 (DTP/NCI, 2004):
The list does not hold the whole screen: it is rich in T/C values a quarter to a half above the control, in often repeated tests (any T/C) and in doses without a T/C. Other doses and runs of a compound stand elsewhere. T/C is the treated group as % of the vehicle group. Some entries give survivors of the animals treated and no T/C: the source holds a T/C of zero for them, seemingly a mark for toxic or unscored doses. Some survivor counts are full or nearly so, which does not show that the dose was tolerated: survival well below the control is almost never listed, so the zero probably covers shortened survival too. Counts of survivors are from the toxicity check (mostly the fifth day) where no day follows; animals may have died later. Schedule codes are those of the source, read here as Q, the interval in days (D) or hours (H), X, the number of doses. Some doses were run more than once; the results are listed from low to high. For survival time, the PubChem record calls one and a half times the control and up active, and a quarter to a half above the control has no call in these data; cut-offs in other NCI protocols can differ. Some T/C values carry the count of animals alive at the toxicity check (mostly the fifth day); where none is given, no animal had died by that day. Counts like (3×) count equal records among those shown.

System: Lymphoma 4 ip in BDF1 mice, median survival
Assay: NCI In Vivo Anticancer Drug Screen. Data for tumor model Lymphoma 4 (intraperitoneal) in B6D2F1 (BDF1) mice
Conditions: T/C endpoint: median survival time, schedule: Q01DX010 (ip), higher T/C = longer survival
Procedure: The antitumor activity of compounds was measured in mice bearing transplantable tumors. Survival or tumor size were measured and the results are expressed as the measurement made in the treated group (T) divided by the measurement made in the vehicle treated control group (C). The tumor model used in this assay is Lymphoma 4 (intraperitoneal) in B6D2F1 (BDF1) mice

[1] = dose: 25.0 mg/kg/injection, vehicle: saline
[2] = dose: 50.0 mg/kg/injection, vehicle: saline
[3] = dose: 0.5 mg/kg/injection, vehicle: saline
[4] = dose: 1.0 mg/kg/injection, vehicle: saline
[5] = dose: 4.0 mg/kg/injection, vehicle: saline
[6] = dose: 8.0 mg/kg/injection, vehicle: saline
[7] = dose: 16.0 mg/kg/injection, vehicle: saline
[8] = dose: 6.25 mg/kg/injection, vehicle: saline
[9] = dose: 12.5 mg/kg/injection, vehicle: saline
[10] = dose: 4.0 mg/kg/injection, vehicle: other
[11] = dose: 8.0 mg/kg/injection, vehicle: other
[12] = dose: 16.0 mg/kg/injection, vehicle: other
[13] = dose: 32.0 mg/kg/injection, vehicle: other
[14] = dose: 64.0 mg/kg/injection, vehicle: other
[15] = dose: 2.5 mg/kg/injection, vehicle: saline
[16] = dose: 5.0 mg/kg/injection, vehicle: saline
[17] = dose: 10.0 mg/kg/injection, vehicle: saline
[18] = dose: 20.0 mg/kg/injection, vehicle: saline
[19] = dose: 62.5 mg/kg/injection, vehicle: saline
[20] = dose: 125.0 mg/kg/injection, vehicle: saline
[21] = dose: 2.0 mg/kg/injection, vehicle: other

Compound: CS(=O)(=O)OCCC(=O)N1CCN(C(=O)CCOS(C)(=O)=O)CC1
- T/C [1]: 129 % of control
- T/C [2]: 148 % of control

Compound: C1CN1c1nc(N2CC2)nc(N2CC2)n1
- T/C [3]: 129 % of control
- T/C [4]: 135 % of control

Compound: CC(CCC(C)OS(C)(=O)=O)OS(C)(=O)=O (stereo not given)
- survivor count (dose: 32.0 mg/kg/injection, vehicle: saline): 6 of 6

Compound: O=C(Nc1ccc(NC2=NCCN2)cc1)c1ccc(C(=O)Nc2ccc(NC3=NCCN3)cc2)cc1
- T/C [5]: 126 and 139 % of control
- T/C [6]: 143 % of control
- survivor count [7]: 6 of 6

Compound: CN(C)[C@@H]1C(=O)C(C(N)=O)=C(O)[C@@]2(O)C(=O)C3=C(O)c4c(O)cccc4C[C@H]3C[C@@H]12
- survivor count (dose: 60.0 mg/kg/injection, vehicle: saline): 5 of 6

Compound: CS(=O)(=O)OCCCl
- survivor count (dose: 150.0 mg/kg/injection, vehicle: saline): 0 of 6

Compound: C[C@@H]1C[C@@H]([C@H](O)CC2CC(=O)NC(=O)C2)C(=O)[C@@H](C)C1
- survivor count (dose: 40.0 mg/kg/injection, vehicle: saline): 5 of 6

Compound: O=C(Nc1ccc(C2=NCCN2)cc1)c1ccc(C(=O)Nc2ccc(C3=NCCN3)cc2)c([N+](=O)[O-])c1
- T/C (dose: 6.0 mg/kg/injection, vehicle: saline): 146 % of control

Compound: CS(=O)(=O)OCCCCOS(C)(=O)=O
- T/C [8]: 96, 100, 102 % of control
- survivor count [8]: 5 of 6
- T/C [9]: 100 and 108 % of control
- survivor count [9]: 6 of 6
- T/C [1]: 100 and 105 % of control
- survivor count [1]: 6 of 6
- T/C [2]: 94 % of control
- survivor count [2]: 5 of 6 and 6 of 6

Compound: CC[C@]1(O)C[C@H]2CN(CCc3c([nH]c4ccccc34)[C@@](C(=O)OC)(c3cc4c(cc3OC)N(C=O)[C@H]3[C@@](O)(C(=O)OC)[C@H](OC(C)=O)[C@]5(CC)C=CCN6CC[C@]43[C@@H]65)C2)C1
- T/C (dose: 0.06 mg/kg/injection, vehicle: saline): 135 % of control
- T/C (dose: 0.12 mg/kg/injection, vehicle: saline): 128 % of control
- survivor count [3]: 5 of 6

Compound: O=C(Nc1ccc(C2=NCCN2)cc1)c1ccc(C(=O)Nc2ccc(C3=NCCN3)cc2)cc1
- T/C [10]: 123, 125, 132, 150 % of control
- T/C [11]: 123, 159, 168, 205 % of control
- T/C [12]: 123, 128, 150, 162 % of control
- T/C [13]: 109, 113, 129, 140 % of control
- T/C [14]: 112, 131, 138 % of control
- survivor count [14]: 4 of 6

Compound: N#[N+]c1cnc([O-])[nH]c1=O
- T/C [15]: 131 [5 of 6 alive] and 146 % of control
- T/C [16]: 131 % of control
- T/C [17]: 134 % of control
- survivor count [18]: 0 of 6

Compound: O=C(Nc1ccc(C2=NCCN2)cc1)c1cccc(C(=O)Nc2ccc(C3=NCCN3)cc2)c1
- T/C [7]: 139 % of control
- survivor count (dose: 64.0 mg/kg/injection, vehicle: saline): 0 of 6

Compound: CCn1cnc2c(=S)nc[nH]c21
- survivor count (dose: 31.3 mg/kg/injection, vehicle: saline): 6 of 6
- survivor count [19]: 6 of 6
- survivor count [20]: 6 of 6

Compound: O=C(Nc1ccc(C2=NCCCN2)cc1)c1ccc(C(=O)Nc2ccc(C3=NCCCN3)cc2)cc1
- T/C (dose: 0.5 mg/kg/injection, vehicle: other): 105, 106, 109 [5 of 6 alive], 113 % of control
- T/C (dose: 1.0 mg/kg/injection, vehicle: other): 123, 126, 128, 134 % of control
- T/C [21]: 171, 180, 181 [5 of 6 alive], 197 % of control
- T/C [10]: 106, 182, 246 % of control
- survivor count [10]: 6 of 6
- survivor count [11]: 5 of 6 and 6 of 6

Compound: NC(Cc1ccc(N(CCCl)CCCl)cc1)C(=O)O (stereo not given)
- T/C [15]: 126 % of control
- T/C [16]: 135 % of control
- survivor count [17]: 6 of 6
- survivor count [18]: 5 of 6

Compound: O=c1cnn(C2OC(CO)C(O)C2O)c(=O)[nH]1 (stereo not given)
- survivor count (dose: 1600.0 mg/kg/injection, vehicle: saline): 6 of 6

Compound: CS(=O)(=O)OCCN(CCOS(C)(=O)=O)c1ccc(N=O)cc1
- T/C (dose: 0.25 mg/kg/injection, vehicle: saline): 138 % of control
- T/C [4]: 126 % of control
- survivor count (dose: 2.0 mg/kg/injection, vehicle: saline): 6 of 6
- survivor count [5]: 4 of 6
- survivor count [6]: 0 of 6
- survivor count [7]: 0 of 6

Compound: Nc1nc(N)c2nc(CNc3ccc(C(=O)NC(CCC(=O)O)C(=O)O)cc3)cnc2n1 (stereo not given)
- survivor count (dose: 0.4 mg/kg/injection, vehicle: other): 5 of 6 and 6 of 6

Compound: O=C(Nc1ccc(C2=NCCN2)cc1)c1ccc(C(=O)Nc2ccc(C3=NCCN3)cc2)c(Cl)c1
- T/C [21]: 103 [5 of 6 alive], 108, 115, 116 % of control
- T/C [10]: 118, 126 (2×), 128 % of control
- T/C [11]: 160, 175, 178, 185 % of control
- T/C [12]: 246, 256, 300, 326 % of control
- T/C [13]: 90 [5 of 6 alive] and 103 % of control
- survivor count [13]: 3 of 6 and 5 of 6

Compound: CCCCNc1ncnc2c1cnn2C
- survivor count [20]: 6 of 6

Compound: CCCSc1ncnc2nc[nH]c12
- survivor count [19]: 5 of 6 and 6 of 6
- survivor count (dose: 250.0 mg/kg/injection, vehicle: saline): 4 of 6 and 5 of 6
